Assay results taken from PMC10247153.
These are yes or no findings as the source states them, for the method shown.

Target: T1, ARID (KDM5C residues 73–188) (human) (UniProt P41229)
T1 sequence: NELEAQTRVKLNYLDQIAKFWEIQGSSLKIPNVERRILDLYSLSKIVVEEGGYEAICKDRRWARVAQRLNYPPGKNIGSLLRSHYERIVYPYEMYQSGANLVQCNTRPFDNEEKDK
Test: condition: up to 1:3 molar ratio of ARID:PHD1 (50 μM ARID); NMR titration; 2D 1H-15N HSQC of 50 μM 15N-ARID with increasing PHD1 up to 1:3 ARID:PHD1; 50 mM HEPES pH 7, 50 mM KCl, 5 mM BME, 50 μM ZnCl2, 5% D2O, 298 K; both purified

binding: no binding
B1: PHD1 (KDM5C residues 318–378) (domain or fragment, UniProt P41229-1 318-378)
chain: NAQFIESYVCRMCSRGDEDDKLLLCDGCDDNYHIFCLLPPLPEIPKGVWRCPKCVMAECKR
